One assay concerns the target EGFR WT (BaF3 WT cells) (Homo sapiens, UniProt P00533). Put plainly: EGFR degradation HTRF assay, BaF3 WT cells. The assay is classed as cell-based. As for the experimental part: (§1) BaF3 WT(wild type), BaF3-LTC(L858R/T790M/C797S) and BaF3-DTC(Del19/T790M/C797S) cells are treated with compounds diluted in 0.2% DMSO cell culture medium and incubate for 16h, 37° C., 5% CO2, H1975-#36, H1975-#28, H1975-#23 and HCC827 cells are treated with compounds diluted in 0.2% DMSO cell culture medium on day 2, incubate for 16h, 37° C., 5% CO2.the final concentriation of compounds in all assay is start with 10 uM, 5-fold dilution, total 8 doses were included.
(§2) After 16h treatment, add HTRF lysis buffer to each well; seal the plate and incubate 1 hour at room temperature on a plate shaker; Once the cells are lysed, 16 μL of cell lysate are transferred to a PE 384-well HTRF detection plate; 4 μL of pre-mixed HTRF antibodies are added to each well; Cover the plate with a plate sealer, spin 1000 rpm for 1 min, Incubate overnight at room temperature; Read on BMG PheraStar with HTRF protocol (337 nm-665 nm-620 nm).
(§3) The inhibition (degradation) percentage of the compound was calculated by the following equation: Inhibition percentage of Compound=100-100×(Signal-low control)/(High control-low control), wherein signal=each test compound group
(§4) High control=Cell group with added DMSO and without compound, indicating microplate readings without EGFR degradation;
(§5) Dmax is the maximum percentage of inhibition (degradation). […]

The chains behind the UniProt entries cited, without tags or fusion partners. Where a name states a change or a piece, a line headed by the entry shows the natural chain unless it says otherwise. A line that says so, or that is headed by a name, gives the form on record, which may keep a tag or linker. Residues count along the entry.
UniProt P00533, 25-1210 limits assumed: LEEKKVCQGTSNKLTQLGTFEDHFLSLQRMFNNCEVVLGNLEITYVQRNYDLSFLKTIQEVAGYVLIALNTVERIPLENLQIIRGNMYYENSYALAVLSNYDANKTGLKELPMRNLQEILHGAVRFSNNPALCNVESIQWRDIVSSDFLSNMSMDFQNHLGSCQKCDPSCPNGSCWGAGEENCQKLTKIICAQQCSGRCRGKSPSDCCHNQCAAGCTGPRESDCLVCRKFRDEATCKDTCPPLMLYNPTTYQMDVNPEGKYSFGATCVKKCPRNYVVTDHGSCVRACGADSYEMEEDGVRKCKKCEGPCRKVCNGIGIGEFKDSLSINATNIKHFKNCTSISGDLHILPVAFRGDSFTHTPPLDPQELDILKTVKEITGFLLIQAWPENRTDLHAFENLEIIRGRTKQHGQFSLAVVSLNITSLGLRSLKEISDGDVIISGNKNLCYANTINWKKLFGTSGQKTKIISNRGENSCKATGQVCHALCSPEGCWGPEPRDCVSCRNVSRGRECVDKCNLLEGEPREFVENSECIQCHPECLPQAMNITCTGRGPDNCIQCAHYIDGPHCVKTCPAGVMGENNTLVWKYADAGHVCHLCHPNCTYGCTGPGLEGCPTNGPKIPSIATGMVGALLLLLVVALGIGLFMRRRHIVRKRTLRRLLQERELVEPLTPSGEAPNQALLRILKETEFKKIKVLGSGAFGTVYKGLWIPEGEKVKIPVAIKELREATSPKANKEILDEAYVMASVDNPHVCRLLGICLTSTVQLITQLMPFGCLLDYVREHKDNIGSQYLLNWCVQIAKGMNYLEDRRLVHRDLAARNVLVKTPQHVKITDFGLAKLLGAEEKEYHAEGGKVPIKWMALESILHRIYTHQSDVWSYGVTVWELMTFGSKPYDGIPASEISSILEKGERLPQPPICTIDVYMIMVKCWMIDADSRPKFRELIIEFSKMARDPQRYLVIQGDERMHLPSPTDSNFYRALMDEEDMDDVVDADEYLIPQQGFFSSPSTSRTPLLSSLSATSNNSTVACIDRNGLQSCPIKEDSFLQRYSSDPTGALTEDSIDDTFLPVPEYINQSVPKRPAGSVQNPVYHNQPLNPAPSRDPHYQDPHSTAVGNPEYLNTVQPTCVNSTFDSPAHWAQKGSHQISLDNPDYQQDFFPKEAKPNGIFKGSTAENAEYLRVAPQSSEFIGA
UniProt P00533, 25-1210 T790M/C797S/L858R limits assumed: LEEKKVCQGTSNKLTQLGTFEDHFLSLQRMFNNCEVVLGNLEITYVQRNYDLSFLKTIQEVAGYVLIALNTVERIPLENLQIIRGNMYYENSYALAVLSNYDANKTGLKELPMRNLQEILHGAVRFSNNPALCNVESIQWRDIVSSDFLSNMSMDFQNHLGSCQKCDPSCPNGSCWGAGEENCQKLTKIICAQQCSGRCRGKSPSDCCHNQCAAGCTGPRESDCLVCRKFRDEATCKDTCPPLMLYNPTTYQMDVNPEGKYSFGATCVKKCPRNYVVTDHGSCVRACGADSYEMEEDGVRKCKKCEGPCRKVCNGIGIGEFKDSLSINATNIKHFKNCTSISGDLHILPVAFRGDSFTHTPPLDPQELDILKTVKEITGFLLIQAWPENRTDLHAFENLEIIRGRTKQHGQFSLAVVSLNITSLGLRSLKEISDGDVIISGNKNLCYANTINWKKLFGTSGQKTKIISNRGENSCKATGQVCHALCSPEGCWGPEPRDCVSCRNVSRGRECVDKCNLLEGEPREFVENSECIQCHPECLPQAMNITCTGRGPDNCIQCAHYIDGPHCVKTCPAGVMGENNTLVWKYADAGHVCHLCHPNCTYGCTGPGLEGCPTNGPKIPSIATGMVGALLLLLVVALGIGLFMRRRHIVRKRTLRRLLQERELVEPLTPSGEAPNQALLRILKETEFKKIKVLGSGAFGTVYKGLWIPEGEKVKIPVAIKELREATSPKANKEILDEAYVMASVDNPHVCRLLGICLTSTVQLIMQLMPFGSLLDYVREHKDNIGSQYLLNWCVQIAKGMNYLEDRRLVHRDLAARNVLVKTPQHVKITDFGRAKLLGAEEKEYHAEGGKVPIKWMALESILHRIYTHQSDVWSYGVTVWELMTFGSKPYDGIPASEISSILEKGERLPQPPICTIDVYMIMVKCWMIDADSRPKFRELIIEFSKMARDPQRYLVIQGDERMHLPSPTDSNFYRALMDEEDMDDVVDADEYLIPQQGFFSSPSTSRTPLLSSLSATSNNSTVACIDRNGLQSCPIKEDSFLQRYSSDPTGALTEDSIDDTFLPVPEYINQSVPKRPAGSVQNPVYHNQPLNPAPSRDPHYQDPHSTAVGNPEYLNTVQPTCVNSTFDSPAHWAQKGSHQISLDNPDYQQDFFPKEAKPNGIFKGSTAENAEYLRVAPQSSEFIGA
UniProt P00533, with tags, fused parts or gaps DEL746-750 limits assumed: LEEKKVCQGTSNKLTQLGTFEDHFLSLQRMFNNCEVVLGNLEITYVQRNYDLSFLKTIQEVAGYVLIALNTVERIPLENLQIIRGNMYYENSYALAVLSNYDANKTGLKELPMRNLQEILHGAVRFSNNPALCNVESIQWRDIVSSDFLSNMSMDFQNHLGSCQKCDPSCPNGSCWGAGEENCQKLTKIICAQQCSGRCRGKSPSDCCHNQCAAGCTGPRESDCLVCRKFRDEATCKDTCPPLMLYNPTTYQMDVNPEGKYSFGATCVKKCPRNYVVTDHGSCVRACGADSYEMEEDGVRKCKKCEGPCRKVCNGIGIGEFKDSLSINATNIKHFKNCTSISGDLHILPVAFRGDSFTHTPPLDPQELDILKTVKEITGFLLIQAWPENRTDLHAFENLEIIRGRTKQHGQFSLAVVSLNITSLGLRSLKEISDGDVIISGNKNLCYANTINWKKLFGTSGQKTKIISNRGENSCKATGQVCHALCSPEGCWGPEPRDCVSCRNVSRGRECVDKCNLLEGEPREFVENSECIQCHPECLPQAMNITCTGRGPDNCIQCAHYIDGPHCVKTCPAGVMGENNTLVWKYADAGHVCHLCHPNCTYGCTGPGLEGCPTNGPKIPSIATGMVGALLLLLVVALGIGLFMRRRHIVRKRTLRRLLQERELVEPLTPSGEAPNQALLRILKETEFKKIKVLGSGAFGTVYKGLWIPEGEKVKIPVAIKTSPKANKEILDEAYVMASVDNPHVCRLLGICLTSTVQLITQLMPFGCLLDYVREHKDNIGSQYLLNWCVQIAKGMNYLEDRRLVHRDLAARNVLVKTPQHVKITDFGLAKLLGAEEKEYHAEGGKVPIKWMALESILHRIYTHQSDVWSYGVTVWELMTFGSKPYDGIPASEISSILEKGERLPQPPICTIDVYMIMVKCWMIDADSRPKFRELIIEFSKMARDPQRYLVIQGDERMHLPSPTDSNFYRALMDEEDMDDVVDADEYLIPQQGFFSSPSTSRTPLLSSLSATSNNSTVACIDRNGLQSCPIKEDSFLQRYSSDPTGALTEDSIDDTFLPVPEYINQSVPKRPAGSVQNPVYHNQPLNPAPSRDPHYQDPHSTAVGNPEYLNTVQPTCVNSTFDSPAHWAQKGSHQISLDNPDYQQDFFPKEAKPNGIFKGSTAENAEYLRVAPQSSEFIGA

For a further assay, the target named is EGFR (HCC827 cells) (Homo sapiens, UniProt P00533, DEL746-750). Put plainly: EGFR degradation HTRF assay, HCC827 cells. The following applies: HCC827, 16h treatment. The protocol:
as §1, §2, §3, §4, §5

Assay [1] has as its system EGFR Del19/T790M/C797S (BaF3-DTC cells). Description: EGFR degradation HTRF assay, BaF3-DTC cells. The assay is classed as cell-based. As for the experimental part:
as §1, §2, §3, §4, §5
In general terms: In TR-FRET formats the signal depends on donor and acceptor labels being close together.

Assay [2] addresses EGFR L858R/T790M/C797S (BaF3-LTC cells) (Homo sapiens, UniProt P00533, C797S/L858R/T790M). Put plainly: EGFR degradation HTRF assay, BaF3-LTC cells. It is filed as cell-based. As for the experimental part: as §1, §2, §3, §4, §5
Where [3] appears, read: 16h treatment, maximum percentage of degradation.

Structures were worked out from names or drawings and are uncertain.

In the case of `COc1cc(CCC2CCN(CCc3ccc(C4CCC(=O)NC4=O)cc3)CC2)ccc1Nc1ncc(Br)c(Nc2ccc3nccnc3c2P(C)(C)=O)n1` (centres unmarked), the “WT Dmax (%)” value at EGFR WT (BaF3 WT cells) (setting [3]) is 30.08%. In addition, the DC50 is greater than 10000 nM on EGFR WT (BaF3 WT cells) (read-out: WT DC50, 16h treatment); 77.3 nM at EGFR (HCC827 cells) (read-out: HCC827 DC50); 8.86 nM in assay [1] (read-out: DTC DC50, 16h treatment); 9.53 nM in assay [2] (read-out: LTC DC50, 16h treatment). Besides, on EGFR (HCC827 cells) (maximum percentage of degradation), the “HCC827 Dmax (%)” value turned out to be 78.03%. The “DTC Dmax (%)” value in assay [1] (setting [3]) was determined as 96.43%. The “LTC Dmax (%)” value in assay [2] (setting [3]) is listed as 94.88%.

Broadly, the DC50 is the concentration at which degradation of the target reaches its halfway point.

The values are drawn from patent publication US20230265116A1, “DEGRADATION OF (EGFR) BY CONJUGATION OF EGFR INHIBITORS WITH E3 LIGASE LIGAND AND METHODS OF USE” (BEIGENE, LTD., priority 2020, published 2023).
